# Assay results: the supplement of paper PMC10849652
# Chains of the proteins cited; added tags and fusions are not shown. Lines headed by an entry give the natural chain unless they say otherwise; changes in a name come on top.
# UniProt P22692: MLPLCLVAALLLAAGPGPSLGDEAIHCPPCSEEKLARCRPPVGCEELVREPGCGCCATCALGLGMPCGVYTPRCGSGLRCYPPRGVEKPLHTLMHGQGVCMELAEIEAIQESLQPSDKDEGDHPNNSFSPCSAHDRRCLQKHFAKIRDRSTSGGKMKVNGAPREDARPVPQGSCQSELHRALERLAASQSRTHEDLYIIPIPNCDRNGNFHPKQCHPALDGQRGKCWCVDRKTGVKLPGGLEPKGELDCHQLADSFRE
# UniProt Q96LU5: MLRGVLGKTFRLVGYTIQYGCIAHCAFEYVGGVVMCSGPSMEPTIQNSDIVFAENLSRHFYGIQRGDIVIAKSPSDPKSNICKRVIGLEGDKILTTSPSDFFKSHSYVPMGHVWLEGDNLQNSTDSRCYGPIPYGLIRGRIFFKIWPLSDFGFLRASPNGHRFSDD
# UniProt P80217: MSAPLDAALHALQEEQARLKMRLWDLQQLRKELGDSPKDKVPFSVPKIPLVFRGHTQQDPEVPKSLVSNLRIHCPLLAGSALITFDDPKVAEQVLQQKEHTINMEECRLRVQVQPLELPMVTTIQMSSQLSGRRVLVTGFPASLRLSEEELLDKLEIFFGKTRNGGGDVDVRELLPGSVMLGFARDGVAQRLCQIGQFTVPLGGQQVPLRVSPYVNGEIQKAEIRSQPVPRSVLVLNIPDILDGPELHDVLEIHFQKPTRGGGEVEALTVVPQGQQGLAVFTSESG
# UniProt Q70UQ0: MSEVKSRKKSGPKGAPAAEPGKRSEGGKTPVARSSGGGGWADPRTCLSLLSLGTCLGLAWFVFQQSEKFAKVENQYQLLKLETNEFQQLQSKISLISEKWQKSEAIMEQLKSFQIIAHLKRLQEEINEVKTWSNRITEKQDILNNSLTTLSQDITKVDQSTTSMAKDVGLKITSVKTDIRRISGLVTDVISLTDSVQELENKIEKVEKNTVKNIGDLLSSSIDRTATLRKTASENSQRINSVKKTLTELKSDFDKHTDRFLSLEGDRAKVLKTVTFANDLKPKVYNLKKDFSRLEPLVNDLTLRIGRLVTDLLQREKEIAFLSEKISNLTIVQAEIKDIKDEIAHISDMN
# UniProt P14316: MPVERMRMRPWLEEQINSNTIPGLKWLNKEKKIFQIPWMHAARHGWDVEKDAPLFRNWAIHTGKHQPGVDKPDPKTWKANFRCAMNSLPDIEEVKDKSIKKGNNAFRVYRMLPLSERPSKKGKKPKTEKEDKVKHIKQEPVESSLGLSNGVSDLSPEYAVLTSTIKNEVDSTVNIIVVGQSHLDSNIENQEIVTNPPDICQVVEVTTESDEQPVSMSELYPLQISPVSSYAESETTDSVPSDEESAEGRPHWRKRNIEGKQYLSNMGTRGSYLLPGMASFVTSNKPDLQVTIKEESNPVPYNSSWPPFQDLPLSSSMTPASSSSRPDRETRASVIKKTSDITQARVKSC
# UniProt Q13576: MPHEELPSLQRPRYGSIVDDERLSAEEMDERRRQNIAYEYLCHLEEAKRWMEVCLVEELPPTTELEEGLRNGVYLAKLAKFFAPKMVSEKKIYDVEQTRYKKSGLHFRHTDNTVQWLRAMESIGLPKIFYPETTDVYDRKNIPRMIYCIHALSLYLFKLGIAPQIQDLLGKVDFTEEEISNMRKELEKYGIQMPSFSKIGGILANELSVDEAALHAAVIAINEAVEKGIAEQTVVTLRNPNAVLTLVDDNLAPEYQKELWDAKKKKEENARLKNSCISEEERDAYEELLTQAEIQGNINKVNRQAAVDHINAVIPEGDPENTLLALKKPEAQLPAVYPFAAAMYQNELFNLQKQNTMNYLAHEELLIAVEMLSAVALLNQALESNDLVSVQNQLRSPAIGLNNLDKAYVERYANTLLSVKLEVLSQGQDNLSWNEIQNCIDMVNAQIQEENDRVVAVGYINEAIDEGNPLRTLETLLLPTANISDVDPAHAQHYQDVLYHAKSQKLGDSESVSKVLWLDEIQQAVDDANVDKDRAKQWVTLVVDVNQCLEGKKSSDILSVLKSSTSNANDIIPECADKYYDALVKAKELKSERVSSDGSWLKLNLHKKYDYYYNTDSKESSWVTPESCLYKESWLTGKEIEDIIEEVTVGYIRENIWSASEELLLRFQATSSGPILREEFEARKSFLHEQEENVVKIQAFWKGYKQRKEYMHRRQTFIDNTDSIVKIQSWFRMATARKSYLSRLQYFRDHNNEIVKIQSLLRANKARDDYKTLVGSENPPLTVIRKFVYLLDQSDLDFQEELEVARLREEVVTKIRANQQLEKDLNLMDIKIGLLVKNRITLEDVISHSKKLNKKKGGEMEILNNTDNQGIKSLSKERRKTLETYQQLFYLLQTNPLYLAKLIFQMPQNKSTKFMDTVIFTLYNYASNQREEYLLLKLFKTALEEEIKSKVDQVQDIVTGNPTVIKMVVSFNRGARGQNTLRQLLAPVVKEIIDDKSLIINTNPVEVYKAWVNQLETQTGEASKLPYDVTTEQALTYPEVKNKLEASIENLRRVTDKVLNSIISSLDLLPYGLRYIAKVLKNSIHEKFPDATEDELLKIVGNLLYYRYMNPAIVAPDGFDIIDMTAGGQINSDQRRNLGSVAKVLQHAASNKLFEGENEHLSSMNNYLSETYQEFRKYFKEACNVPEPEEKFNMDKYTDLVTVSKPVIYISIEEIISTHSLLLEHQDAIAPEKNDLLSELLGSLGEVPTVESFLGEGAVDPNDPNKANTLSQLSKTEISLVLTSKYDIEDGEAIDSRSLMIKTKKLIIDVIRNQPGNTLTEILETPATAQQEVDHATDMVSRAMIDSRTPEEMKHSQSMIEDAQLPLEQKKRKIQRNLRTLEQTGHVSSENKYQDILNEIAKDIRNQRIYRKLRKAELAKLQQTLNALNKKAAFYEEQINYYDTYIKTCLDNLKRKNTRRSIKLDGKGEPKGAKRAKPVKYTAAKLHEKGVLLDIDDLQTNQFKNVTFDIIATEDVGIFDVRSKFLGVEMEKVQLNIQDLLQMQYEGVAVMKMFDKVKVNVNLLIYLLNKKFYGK
# UniProt Q5VWK5: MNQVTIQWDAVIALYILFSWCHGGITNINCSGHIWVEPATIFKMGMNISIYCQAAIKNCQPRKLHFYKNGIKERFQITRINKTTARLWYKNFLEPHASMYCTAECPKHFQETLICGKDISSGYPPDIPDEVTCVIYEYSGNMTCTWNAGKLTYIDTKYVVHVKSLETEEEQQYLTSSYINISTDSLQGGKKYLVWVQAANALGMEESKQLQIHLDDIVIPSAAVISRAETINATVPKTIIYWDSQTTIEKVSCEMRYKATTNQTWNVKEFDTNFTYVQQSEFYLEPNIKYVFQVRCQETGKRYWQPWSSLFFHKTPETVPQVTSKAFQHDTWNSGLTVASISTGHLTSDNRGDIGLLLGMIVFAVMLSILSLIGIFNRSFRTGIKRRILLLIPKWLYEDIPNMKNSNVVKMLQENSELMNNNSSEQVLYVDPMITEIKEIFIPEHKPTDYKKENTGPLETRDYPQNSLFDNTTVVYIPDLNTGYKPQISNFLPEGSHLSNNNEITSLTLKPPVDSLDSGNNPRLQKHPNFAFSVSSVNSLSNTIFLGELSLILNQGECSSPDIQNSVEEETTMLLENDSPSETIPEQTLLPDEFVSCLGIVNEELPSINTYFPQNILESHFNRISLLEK
# UniProt Q9NV31: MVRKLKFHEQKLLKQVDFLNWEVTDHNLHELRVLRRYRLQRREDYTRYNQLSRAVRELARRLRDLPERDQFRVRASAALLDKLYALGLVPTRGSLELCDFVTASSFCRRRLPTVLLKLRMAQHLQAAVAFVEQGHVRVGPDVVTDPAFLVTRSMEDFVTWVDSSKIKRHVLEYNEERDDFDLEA
# UniProt Q9ULR0: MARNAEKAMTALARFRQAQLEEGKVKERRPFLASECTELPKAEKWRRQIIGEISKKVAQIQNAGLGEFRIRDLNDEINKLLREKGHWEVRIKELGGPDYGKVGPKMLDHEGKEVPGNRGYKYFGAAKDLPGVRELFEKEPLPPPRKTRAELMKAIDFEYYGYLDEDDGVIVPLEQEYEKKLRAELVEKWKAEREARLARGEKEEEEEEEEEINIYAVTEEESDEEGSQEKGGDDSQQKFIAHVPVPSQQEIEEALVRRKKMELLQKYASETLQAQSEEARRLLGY
# UniProt P05161, whole entry, looked up: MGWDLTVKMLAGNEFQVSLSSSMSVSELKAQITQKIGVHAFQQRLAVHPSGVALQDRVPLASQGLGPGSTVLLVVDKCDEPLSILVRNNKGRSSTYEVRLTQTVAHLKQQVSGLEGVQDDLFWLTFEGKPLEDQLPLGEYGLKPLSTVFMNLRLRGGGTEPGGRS
# UniProt Q969R8: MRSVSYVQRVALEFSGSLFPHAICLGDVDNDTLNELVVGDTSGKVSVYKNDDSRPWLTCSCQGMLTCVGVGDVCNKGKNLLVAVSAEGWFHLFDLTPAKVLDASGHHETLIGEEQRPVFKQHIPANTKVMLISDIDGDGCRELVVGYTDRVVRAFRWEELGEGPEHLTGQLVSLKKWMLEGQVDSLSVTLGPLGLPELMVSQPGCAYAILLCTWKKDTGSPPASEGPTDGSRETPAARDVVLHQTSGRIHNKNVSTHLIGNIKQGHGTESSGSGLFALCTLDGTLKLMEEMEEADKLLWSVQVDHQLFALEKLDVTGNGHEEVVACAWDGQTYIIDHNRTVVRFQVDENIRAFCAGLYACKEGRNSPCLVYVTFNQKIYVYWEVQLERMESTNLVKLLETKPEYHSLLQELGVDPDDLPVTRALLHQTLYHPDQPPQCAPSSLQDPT
# UniProt Q9Y6K9, whole entry, looked up: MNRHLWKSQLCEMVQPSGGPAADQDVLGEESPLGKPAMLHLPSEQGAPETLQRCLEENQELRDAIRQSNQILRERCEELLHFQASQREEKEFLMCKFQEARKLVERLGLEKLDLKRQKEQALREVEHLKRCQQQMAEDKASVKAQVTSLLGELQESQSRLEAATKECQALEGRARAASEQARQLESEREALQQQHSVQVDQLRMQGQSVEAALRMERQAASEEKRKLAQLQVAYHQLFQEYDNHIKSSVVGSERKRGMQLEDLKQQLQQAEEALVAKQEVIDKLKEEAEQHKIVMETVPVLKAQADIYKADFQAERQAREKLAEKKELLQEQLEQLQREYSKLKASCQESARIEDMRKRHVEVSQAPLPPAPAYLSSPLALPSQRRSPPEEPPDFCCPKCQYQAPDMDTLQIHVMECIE
# UniProt Q12905: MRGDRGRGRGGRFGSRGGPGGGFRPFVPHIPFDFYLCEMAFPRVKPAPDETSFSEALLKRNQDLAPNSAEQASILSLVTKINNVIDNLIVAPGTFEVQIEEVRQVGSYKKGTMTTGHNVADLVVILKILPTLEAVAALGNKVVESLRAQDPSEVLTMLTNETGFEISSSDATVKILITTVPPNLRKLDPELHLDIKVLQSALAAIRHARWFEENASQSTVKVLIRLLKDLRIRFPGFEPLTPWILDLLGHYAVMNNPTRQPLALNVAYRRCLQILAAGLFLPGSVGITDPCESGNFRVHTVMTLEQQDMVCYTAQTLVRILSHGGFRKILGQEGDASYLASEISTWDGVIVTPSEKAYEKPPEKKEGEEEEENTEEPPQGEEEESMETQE
# UniProt O95373, whole entry, looked up: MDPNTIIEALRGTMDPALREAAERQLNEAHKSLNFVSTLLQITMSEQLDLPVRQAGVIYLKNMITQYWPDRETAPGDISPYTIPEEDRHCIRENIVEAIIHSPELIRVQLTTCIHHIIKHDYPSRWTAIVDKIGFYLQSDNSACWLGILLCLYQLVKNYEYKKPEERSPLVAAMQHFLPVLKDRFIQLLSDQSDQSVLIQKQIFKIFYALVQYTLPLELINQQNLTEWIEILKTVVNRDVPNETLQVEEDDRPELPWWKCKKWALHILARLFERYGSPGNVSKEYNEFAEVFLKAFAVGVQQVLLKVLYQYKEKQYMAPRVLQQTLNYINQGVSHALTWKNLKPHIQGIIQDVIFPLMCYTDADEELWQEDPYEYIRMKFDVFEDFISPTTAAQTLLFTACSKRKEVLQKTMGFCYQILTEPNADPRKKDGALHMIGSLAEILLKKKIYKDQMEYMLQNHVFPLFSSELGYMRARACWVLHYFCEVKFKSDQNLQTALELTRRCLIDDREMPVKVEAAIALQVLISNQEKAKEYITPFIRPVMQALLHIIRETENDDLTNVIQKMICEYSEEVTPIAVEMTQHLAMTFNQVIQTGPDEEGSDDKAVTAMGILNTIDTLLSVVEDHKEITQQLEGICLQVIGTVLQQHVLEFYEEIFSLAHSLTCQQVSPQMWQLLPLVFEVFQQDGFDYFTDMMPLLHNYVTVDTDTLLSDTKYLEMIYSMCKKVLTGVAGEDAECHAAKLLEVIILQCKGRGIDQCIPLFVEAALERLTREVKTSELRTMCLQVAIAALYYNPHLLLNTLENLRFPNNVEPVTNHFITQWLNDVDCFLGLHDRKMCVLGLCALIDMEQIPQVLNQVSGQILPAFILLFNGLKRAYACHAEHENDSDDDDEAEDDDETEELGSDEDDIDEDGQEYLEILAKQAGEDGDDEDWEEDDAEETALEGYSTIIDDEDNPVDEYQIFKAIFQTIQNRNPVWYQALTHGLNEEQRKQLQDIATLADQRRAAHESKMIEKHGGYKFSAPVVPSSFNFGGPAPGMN
# The other results are listed elsewhere or left out.
# Compound: CC1=C(SC2=C1C(=N[C@H](C3=NN=C(N32)C)CC(=O)N)C4=CC=C(C=C4)Cl)C
# Assay: log2 fold change, soluble protein after heating vs DMSO (PISA); higher = thermal stabilisation; K562 cells, 10 uM, 30 min; active = over 0.2 and 3.5 SD of the protein, either way, in both replicates (recomputed)
# Method in brief: (§1)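 K562 cells at 2×10^6 cells/mL were exposed to 10 μM compound for 30 min, then aliquots were heated for 3 min across 48°C-58°C, pooled, and extracted in PBS containing 0.5% NP-40 at 4°C. The supernatant after 21,000xg for 90 min was taken as soluble protein and measured by TMTpro 16plex LC-MS/MS with channel sums equalised. Thermal stability is reported relative to control samples, with values from duplicates. Fold changes are given on a log2 scale.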
row,Target,log2 fold change
1,IGFBP4 (UniProt P22692),inactive: -0.046
2,IMMP1L (UniProt Q96LU5),inactive: 0.045
3,IDH3G (UniProt P51553),inactive: -0.019
4,IPO9 (UniProt Q96P70),inactive: 0.063
5,IREB2 (UniProt P48200),inactive: 0.047
6,IFI35 isoform 2 (UniProt P80217),inactive: 0.065
7,IRF3 (UniProt Q14653),inactive: 0.123
8,IKBIP isoform 4 (UniProt Q70UQ0),inactive: 0.004
9,IRF2 (UniProt P14316),inactive: -0.093

# Two records picked at random from those above:
row,Target,log2 fold change
9,IRF2 (UniProt P14316),inactive: -0.093
3,IDH3G (UniProt P51553),inactive: -0.019

# Compound: CC1=C2C(=CC=C1)N=C(N(C2=O)C3=CC=CC=C3C)CN4C=NC5=C(N=CN=C54)N
# Assay: as above
# Method in brief: as §1
row,Target,log2 fold change
1,IQGAP2 (UniProt Q13576),inactive: 0.063
2,ITPK1 (UniProt Q13572),inactive: 0.05
3,IL23R (UniProt Q5VWK5),inactive: 0.073
4,IMP3 (UniProt Q9NV31),inactive: 0.17
5,IKBIP (UniProt Q70UQ0),inactive: 0.025
6,ISY1 isoform 1 (UniProt Q9ULR0),inactive: 0.008
7,ISG15 (UniProt P05161),inactive: 0.103
8,ITFG2 (UniProt Q969R8),inactive: 0.168
9,IKBKG isoform 2 (UniProt Q9Y6K9),inactive: 0.002
10,ILF2 (UniProt Q12905),inactive: -0.141
11,IKZF1 isoform 2 (UniProt Q13422),inactive: 0.052
12,IPO7 (UniProt O95373),inactive: 0.069
13,IST1 isoform 5 (UniProt P53990),inactive: 0.071
14,IMPA2 (UniProt O14732),inactive: -0.05
